Record: PubChem BioAssay AID1508588 (Peter MacCallum Cancer Centre, 2020)
The deposit covers about 18,000 reagents; shown is an unselected part. 790 of them (4.4%) count as active. 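Calls rest on a combination of fold-change classes in drug and vehicle arms, not all shown here.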

- Purpose: 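Genome-wide search for knock-downs that heighten vemurafenib action in melanoma cells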 (primary screen)
- Cell system: human WM266.4 melanoma cells (BRAF V600 mutant)
- Reagent: siRNA pool against human genes, 40 nM
- Duration: 96 h from transfection to read-out
- Conditions: vemurafenib 300 nM (about IC25), added 48 h after transfection, for 48 h; comparison arm got DMSO vehicle only
- Measured: 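Cell gain (DAPI nuclei at end minus before drug, mean of two replicates) and medium lactate by absorbance per cell, both as ratio to non-targeting siRNA, also grouped into fold-change classes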
- Reading the numbers: cell gain with vemurafenib: higher = more cell gain than with non-targeting siRNA; lactate per cell with vemurafenib: higher = more lactate made per cell
- Hit rule: 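a knock-down counts as enhancing when its fold-change classes with vehicle and with vemurafenib, taken together, show a stronger drug effect on cell gain or lactate per cell; exact class pairs not stated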
- Meaning of the calls: active = enhances vemurafenib effect; inactive = no enhancement seen

gene	cell gain with vemurafenib	lactate per cell with vemurafenib	activity call
ID1 (inhibitor of DNA binding 1)	0.5	0.78	inactive
RPN2 (ribophorin II)	0.1	2.21	inactive
FBP1 (fructose-bisphosphatase 1)	0.76	0.34	inactive
ITM2B (integral membrane protein 2B)	0.85	1.02	inactive
ANKHD1-EIF4EBP3 (ANKHD1-EIF4EBP3 readthrough)	0.14	0.82	active
KCNK3 (potassium two pore domain channel subfamily K member 3)	0.66	0.9	inactive
KIR3DS1	0.58	1.66	inactive
ATG16L1 (autophagy related 16 like 1)	1.22	0.67	inactive
SMYD1 (SET and MYND domain containing 1)	0.22	2.35	inactive
PPARGC1A (PPARG coactivator 1 alpha)	0.38	1.69	inactive
RPS24 (ribosomal protein S24)	-0.15	1.56	inactive
PAPOLG (poly(A) polymerase gamma)	0.54	0.74	inactive
ZNF688 (zinc finger protein 688)	0.8	0.74	inactive
OR8B12 (olfactory receptor family 8 subfamily B member 12)	0.7	0.51	inactive
CAMK1G (calcium/calmodulin dependent protein kinase IG)	0.92	0.52	inactive
SERTM1 (serine rich and transmembrane domain containing 1)	0.71	1.12	inactive
GNL3L (G protein nucleolar 3 like)	1.18	0.54	inactive
NMT1 (N-myristoyltransferase 1)	1.16	0.88	inactive
OAS3 (2'-5'-oligoadenylate synthetase 3)	0.22	0.96	inactive
FST (follistatin)	0.38	0.92	inactive
CBFA2T3 (CBFA2/RUNX1 partner transcriptional co-repressor 3)	0.55	0.97	inactive
PEAK1 (pseudopodium enriched atypical kinase 1)	0.47	1.25	inactive
CFLAR (CASP8 and FADD like apoptosis regulator)	0.43	0.92	inactive
GART	0.25	1.87	inactive
MAPT (microtubule associated protein tau)	0.41	0.5	inactive
UGT1A10 (UDP glucuronosyltransferase family 1 member A10)	0.44	0.77	inactive
PHOX2A (paired like homeobox 2A)	0.92	0.66	inactive
UGT1A8 (UDP glucuronosyltransferase family 1 member A8)	0.77	0.68	inactive
SPIN2B (spindlin family member 2B)	0.68	0.59	inactive
FARP2 (FERM, ARH/RhoGEF and pleckstrin domain protein 2)	0.6	0.38	inactive
ZBTB6 (zinc finger and BTB domain containing 6)	0.44	1.25	inactive
MAGEA10 (MAGE family member A10)	0.43	0.5	inactive
SLC37A4	0.38	1.42	inactive
UFC1 (ubiquitin-fold modifier conjugating enzyme 1)	0.82	1.66	inactive
CD44 (CD44 molecule (IN blood group))	0.34	1.68	inactive
KIAA0319L (KIAA0319 like)	0.47	0.9	inactive
HOXD8 (homeobox D8)	0.59	0.68	inactive
PYGO2 (pygopus family PHD finger 2)	0.14	1.89	inactive
CDV3 (CDV3 homolog)	0.79	0.42	inactive
FFAR2 (free fatty acid receptor 2)	0.8	1.1	inactive
TMEM127 (transmembrane protein 127)	0.85	0.5	inactive
FUZ (fuzzy planar cell polarity protein)	0.63	1.15	inactive
C14orf119 (chromosome 14 open reading frame 119)	0.66	0.66	inactive
SULF2 (sulfatase 2)	0.74	0.67	inactive
FEZF2 (FEZ family zinc finger 2)	0.83	0.12	active
SPTBN4 (spectrin beta, non-erythrocytic 4)	0.96	0.8	inactive
SLC15A2	0.96	0.68	inactive
SAT2 (spermidine/spermine N1-acetyltransferase family member 2)	0.91	0.88	inactive
PRICKLE1 (prickle planar cell polarity protein 1)	1.05	0.55	inactive
RPH3AL (rabphilin 3A like (without C2 domains))	0.94	1.16	inactive
VWA2 (von Willebrand factor A domain containing 2)	0.02	0.98	inactive
SMS (spermine synthase)	0.22	1.22	inactive
OR2W5	1.29	0.84	inactive
IFNL1 (interferon lambda 1)	0.54	1.45	inactive
CTU2 (cytosolic thiouridylase subunit 2)	0.37	0.66	inactive
ZC3H11D (zinc finger CCCH-type containing 11D)	1.21	0.68	inactive
TXNDC2 (thioredoxin domain containing 2)	0.42	1.37	inactive

3 of these entries in another layout:
{"gene": "SMYD1 (SET and MYND domain containing 1)", "cell gain with vemurafenib": 0.22, "lactate per cell with vemurafenib": 2.35, "activity call": "inactive"}
{"gene": "PPARGC1A (PPARG coactivator 1 alpha)", "cell gain with vemurafenib": 0.38, "lactate per cell with vemurafenib": 1.69, "activity call": "inactive"}
{"gene": "RPS24 (ribosomal protein S24)", "cell gain with vemurafenib": -0.15, "lactate per cell with vemurafenib": 1.56, "activity call": "inactive"}
